PubChem BioAssay AID504784, Drosophila RNAi Screening Center | 2011
Purpose: 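Fly genes whose silencing alters how much lipid cells keep in droplets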 (primary screen). Cells: Drosophila Kc167 embryonic cells. Reagents: long dsRNA against Drosophila genes, about 250 ng dsRNA per well. Duration: 4 days. Treatment: cells fed 400 µM oleic acid bound to BSA. Measurement: 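Microscope images give a droplet-to-nucleus area ratio, taken as log and converted to a screen-wide B-score; higher values mean greater lipid storage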. Reading the numbers: droplet/nuclear area B-score: higher = more stored lipid (overstorage).
In all, the deposit lists about 17,000 reagents; shown is a random part of those with a known target gene and a result. 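Each column is one replicate's B-score; the combined score over replicates was not deposited, so single values may mislead.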 A plus sign joins genes that one reagent is predicted to hit.

The opening 5 records as a preview:
CG9706 [DRSC11095] | droplet/nuclear area B-score, replicate 1: -0.502; droplet/nuclear area B-score, replicate 2: 0.848; droplet/nuclear area B-score, replicate 3: 1.32
CG5823 [DRSC15881] | droplet/nuclear area B-score, replicate 1: -0.273; droplet/nuclear area B-score, replicate 2: -0.404
Or49a (Odorant receptor 49a) [DRSC07493] | droplet/nuclear area B-score, replicate 1: -1.1; droplet/nuclear area B-score, replicate 2: 0.837
Arl4 (ADP ribosylation factor-like 4) [DRSC17156] | droplet/nuclear area B-score, replicate 1: 0.467; droplet/nuclear area B-score, replicate 2: 1.4
ari-2 (ariadne 2) [DRSC04672] | droplet/nuclear area B-score, replicate 1: 0.212; droplet/nuclear area B-score, replicate 2: -1.43

Main list, from the first entry:
CG9706 [DRSC11095] | droplet/nuclear area B-score, replicate 1: -0.502; droplet/nuclear area B-score, replicate 2: 0.848; droplet/nuclear area B-score, replicate 3: 1.32
CG5823 [DRSC15881] | droplet/nuclear area B-score, replicate 1: -0.273; droplet/nuclear area B-score, replicate 2: -0.404
Or49a (Odorant receptor 49a) [DRSC07493] | droplet/nuclear area B-score, replicate 1: -1.1; droplet/nuclear area B-score, replicate 2: 0.837
Arl4 (ADP ribosylation factor-like 4) [DRSC17156] | droplet/nuclear area B-score, replicate 1: 0.467; droplet/nuclear area B-score, replicate 2: 1.4
ari-2 (ariadne 2) [DRSC04672] | droplet/nuclear area B-score, replicate 1: 0.212; droplet/nuclear area B-score, replicate 2: -1.43
omd (oocyte maintenance defects) [DRSC16507] | droplet/nuclear area B-score, replicate 1: -6.23; droplet/nuclear area B-score, replicate 2: -4.28
PIP5K59B (Phosphatidylinositol 4-phosphate 5-kinase 59B) [DRSC04290] | droplet/nuclear area B-score, replicate 1: 1.56; droplet/nuclear area B-score, replicate 2: 0.597
PIP5K59B (Phosphatidylinositol 4-phosphate 5-kinase 59B) [DRSC04403] | droplet/nuclear area B-score, replicate 1: -0.72; droplet/nuclear area B-score, replicate 2: 0.183
L (Lobe) [DRSC06666] | droplet/nuclear area B-score, replicate 1: 0.702; droplet/nuclear area B-score, replicate 2: -0.513
L (Lobe) [DRSC06668] | droplet/nuclear area B-score, replicate 1: 0.0899; droplet/nuclear area B-score, replicate 2: -0.392
Ir51a (Ionotropic receptor 51a) [DRSC06256] | droplet/nuclear area B-score, replicate 1: 0.85; droplet/nuclear area B-score, replicate 2: -0.0281
Loxl1 (Lysyl oxidase-like 1) [DRSC14303] | droplet/nuclear area B-score, replicate 1: -0.638; droplet/nuclear area B-score, replicate 2: 0.0135
GstS1 (Glutathione S transferase S1) [DRSC07436] | droplet/nuclear area B-score, replicate 1: -2.27; droplet/nuclear area B-score, replicate 2: 0.661
dare + CG30033 [DRSC22908] | droplet/nuclear area B-score, replicate 1: 0.00933; droplet/nuclear area B-score, replicate 2: -0.0196
PH4alphaNE1 (prolyl-4-hydroxylase-alpha NE1) [DRSC16546] | droplet/nuclear area B-score, replicate 1: -4.11; droplet/nuclear area B-score, replicate 2: 0.344
gogo (golden goal) [DRSC10070] | droplet/nuclear area B-score, replicate 1: 0.945; droplet/nuclear area B-score, replicate 2: 2.44
gogo (golden goal) [DRSC10071] | droplet/nuclear area B-score, replicate 1: 0.111; droplet/nuclear area B-score, replicate 2: -0.751
Ythdf (YTH N6-methyladenosine RNA binding protein) [DRSC16036] | droplet/nuclear area B-score, replicate 1: -1.9; droplet/nuclear area B-score, replicate 2: -0.704
Ythdf (YTH N6-methyladenosine RNA binding protein) [DRSC16037] | droplet/nuclear area B-score, replicate 1: 0.21; droplet/nuclear area B-score, replicate 2: 0.459
CG15580 [DRSC12266] | droplet/nuclear area B-score, replicate 1: -1.58; droplet/nuclear area B-score, replicate 2: -0.158
Tep1 (Thioester-containing protein 1) [DRSC03450] | droplet/nuclear area B-score, replicate 1: 0.0911; droplet/nuclear area B-score, replicate 2: 0.0301
lbe (ladybird early) [DRSC16985] | droplet/nuclear area B-score, replicate 1: -0.583
CG12539 [DRSC19470] | droplet/nuclear area B-score, replicate 1: -1.84; droplet/nuclear area B-score, replicate 2: -0.562
twi (twist) [DRSC04720] | droplet/nuclear area B-score, replicate 1: -2.27; droplet/nuclear area B-score, replicate 2: 0.138
twi (twist) [DRSC23185] | droplet/nuclear area B-score, replicate 1: 2.06; droplet/nuclear area B-score, replicate 2: -0.562
CG42506 (retired record) + CG43759 [DRSC19464] | droplet/nuclear area B-score, replicate 1: -0.235; droplet/nuclear area B-score, replicate 2: 1.61
CG42506 (retired record) + CG43759 [DRSC19543] | droplet/nuclear area B-score, replicate 1: -1.53; droplet/nuclear area B-score, replicate 2: -0.71
Nadk2 (NAD kinase 2, mitochondrial) [DRSC07072] | droplet/nuclear area B-score, replicate 1: 0.969; droplet/nuclear area B-score, replicate 2: 1.26
Ank2 (Ankyrin 2) [DRSC08894] | droplet/nuclear area B-score, replicate 1: 0.874; droplet/nuclear area B-score, replicate 2: 2.9
Ank2 (Ankyrin 2) [DRSC09666] | droplet/nuclear area B-score, replicate 1: -0.734; droplet/nuclear area B-score, replicate 2: 0.577
Ank2 (Ankyrin 2) [DRSC10338] | droplet/nuclear area B-score, replicate 1: 0.999; droplet/nuclear area B-score, replicate 2: 1.77
Ank2 (Ankyrin 2) [DRSC11278] | droplet/nuclear area B-score, replicate 1: -1.17; droplet/nuclear area B-score, replicate 2: 0.493
Ank2 (Ankyrin 2) [DRSC22922] | droplet/nuclear area B-score, replicate 1: 0.881; droplet/nuclear area B-score, replicate 2: 0.968
CG16986 [DRSC08502] | droplet/nuclear area B-score, replicate 1: -0.0289; droplet/nuclear area B-score, replicate 2: -0.34
ND-B18 (NADH dehydrogenase (ubiquinone) B18 subunit) [DRSC19947] | droplet/nuclear area B-score, replicate 1: 0.488; droplet/nuclear area B-score, replicate 2: -0.0307
dap (dacapo) [DRSC07601] | droplet/nuclear area B-score, replicate 1: 0.54; droplet/nuclear area B-score, replicate 2: 1.09
r2d2 [DRSC03014] | droplet/nuclear area B-score, replicate 1: 1.24; droplet/nuclear area B-score, replicate 2: 2.77
CG4911 [DRSC10456] | droplet/nuclear area B-score, replicate 2: -0.54
Acp26Aa (Accessory gland protein 26Aa) [DRSC01855] | droplet/nuclear area B-score, replicate 1: -3.29; droplet/nuclear area B-score, replicate 2: 0.515
cnk (connector enhancer of ksr) [DRSC07595] | droplet/nuclear area B-score, replicate 1: -1.55; droplet/nuclear area B-score, replicate 2: -0.0109
